The values below come from PubChem BioAssay AID493014 (National Center for Advancing Translational Sciences (NCATS), 2011).

A short description of the experiment: qHTS Assay to Find Inhibitors of Chronic Active B-Cell Receptor Signaling. The note with it: ABC-DLBCL IkBa-CBG/CBR reporter, luminescence ratio (green luciferase fused to IkBa over red control in TMD8 lymphoma cells), 4 h. In short, it runs like this: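 Doxycycline induced both beetle luciferases in TMD8 lymphoma cells; IKK-driven degradation limits the IkappaBalpha-fused green signal, while red luminescence normalises for cell number and nonspecific effects. Compounds tested up to 46 uM, 4 hrs.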
For orientation: In qHTS, concentration-response curves come from the screen itself.

[1] abbreviates: measured here: CBR red luminescence, cell number.
[2] abbreviates: measured here: IkBa-CBG green luminescence.

The list shows a part of the results. Further columns of the screen follow, without active or inactive calls. The list favours compounds with an active or inconclusive main result. Potencies come from curve fits of mixed quality, noted in brackets.

For the compound `CC(=O)c1csc(-c2cccc(-c3nc4ccc(Cl)cn4c3NC3CCCCC3)c2)c1`, the AC50 (usually the concentration giving half of the maximal activity seen) under setting [1] was 1.46 µM [rising, partial curve, poor fit].
With `Cc1ccc(C(=O)N2CCN(S(C)(=O)=O)C2)cc1`, the AC50 under setting [1] was 3.55 µM [rising, single point].
For the compound `O=C1CCCC2=C1C1c3ccccc3C(=O)N1c1ccc(C(=O)c3ccccc3)cc1N2` (stereo not drawn), the AC50 by setting is: under setting [1], 29.1 µM [falling, single point]; under setting [2], 6.51 µM [rising, partial curve, poor fit].
In the case of `Cc1ccc(SC(=O)c2c([N+](=O)[O-])c(C)nn2C)cc1`, under setting [1], the AC50 is 6.31 µM [falling, single point].
Still for that read-out and setting: to `Oc1cccc(Nc2ncnc3ccccc23)c1` belongs 5.17 µM [falling, partial curve, poor fit]; to `Cn1c(=O)[nH]c(=O)c2c1nc(N1CCCCC1)n2C/C=N/NC(=O)c1cc(Br)ccc1O`, 1.41 µM [falling, full curve].
On to `O=C(O)CCC(=O)Nc1ccc(S(=O)(=O)N2CCCC2)cc1`, for which, under setting [1], the AC50 is 29.1 µM [rising, single point].
With `CSc1ccccc1NC(=O)COc1nsnc1N1CCOCC1`, the AC50 under setting [1] is 10 µM [falling, partial curve].
For `Cc1ccc(O)c(-c2cc(C(F)(F)C(F)F)[nH]n2)c1`, the AC50 under setting [1] was 4.47 µM [rising, partial curve, poor fit].
The same measure, in the same setting: to `Cn1c(-c2ccc(F)cc2)cnc1NCc1cc2c(cc1[N+](=O)[O-])OCO2` belongs 13 µM [falling, partial curve]; to `CCN(CC)P(=O)(Nc1ccc([N+](=O)[O-])cc1)c1c(C)nn(CCC#N)c1NC(=O)c1ccc(Cl)cc1` (stereo not drawn), 5.01 µM [rising, single point]; to `S=C(Nc1ccccn1)NC1CCCCC1`, 35.5 µM [rising, single point].
In the case of `O=C(CCN1C(=O)c2ccccc2C1=O)NCc1cccc(Cl)c1`, the half-maximal activity concentration (AC50) under setting [1] was 11.2 µM [rising, partial curve].
The same measure, in the same setting: to `COc1ccc(-c2oc3ccccc3c(=O)c2OCC(=O)O)cc1` belongs 12.6 µM [rising, partial curve, poor fit].
As to `O=C1/C(=C/c2cccnc2)CCc2c1[nH]c1ccccc21`, under setting [1], the AC50 is 15.8 µM [falling, single point].
Same read-out and setting: the result for `O=c1[nH]cnc2sc(-c3ccccc3)cc12` reads 23.1 µM [falling, single point].
As to `COc1cccc(C(=O)Nc2ccc(Cl)c(C(F)(F)F)c2)c1`, under setting [1], the AC50 is 18.4 µM [falling, single point].
As to `COc1cccc(C2CC(=O)N3CN(c4cccc(Cl)c4C)CSC3=C2C#N)c1OC` (stereo not drawn), the AC50 reads like this: under setting [1], 25.9 µM [falling, single point]; under setting [2], 29.1 µM [rising, single point].
Take `CCCCS/C(N)=N/N=C/c1ccccc1O`: the AC50 under setting [1] was 0.58 µM [rising, partial curve].
As to `Cc1cc(C)n(-c2ccc(C(=O)Nc3ccc(C)c(S(=O)(=O)N(C)C)c3)cc2)n1`, under setting [1], the concentration at half-maximal activity (AC50) was 20.6 µM [falling, single point].
As to `Cc1nc(SCC(=O)Nc2cc(C)on2)c2c3c(sc2n1)CCCC3`, the AC50 under setting [1] was 6.51 µM [rising, single point].
On the same count and under the same terms, to `COC(=O)c1sc(NC(=O)/C=C/c2ccccc2Cl)nc1C` belongs 15.8 µM [falling, partial curve]; to `CCOC(=O)c1sc(N2C(=O)C(O)=C(C(=O)c3ccco3)C2c2cccc([N+](=O)[O-])c2)nc1C` (stereo not drawn), 35.5 µM [falling, single point]; to `O=C(Cc1ccc([N+](=O)[O-])cc1)N1CCCc2ccccc21`, 10 µM [rising, partial curve, poor fit].
The same measure, in the same setting: the result for `C/C(=N\OC(=O)c1ccccc1)c1cc(-c2ccc(Cl)cc2)no1` reads 0.1 µM [rising, full curve]; that for `O=C(COC(=O)/C=C/c1cccc(C(F)(F)F)c1)NCc1ccc(F)cc1`, 0.00411 µM [falling, full curve, poor fit]; that for `Cc1csc2nc(CNC(=O)C3CC=CCC3C(=O)O)cn12` (stereo not drawn), 0.651 µM [rising, partial curve, poor fit].
Turning to `CCOc1ccccc1NC(=O)CSc1nc2cc(O)ccc2c(=O)n1-c1ccc(OC)c(OC)c1`, the AC50 under setting [1] is 12.6 µM [falling, single point].
Take `CSc1cccc(NC(=O)c2ccc(CN3CCc4ccccc4C3)cc2)c1`: the AC50 under setting [1] is 0.178 µM [falling, full curve, poor fit].
Same read-out and setting: the result for `CN(C)c1ccc(-c2nc3ccccn3c2/N=C/c2ccc(Br)cc2)cc1` reads 32.6 µM [falling, single point]; that for `COc1cc2c(cc1OC)-c1c(OC)c(OC)cc3ccnc(c13)C2=O`, 8.2 µM [rising, partial curve, poor fit]; that for `Oc1ccc(F)cc1-c1cc(-c2ccc3c(c2)OCCO3)n[nH]1`, 0.00461 µM [falling, full curve, poor fit].
Same read-out and setting: to `CCN(C(=O)Nc1ccccc1OC)c1c(N)n(Cc2ccccc2)c(=O)[nH]c1=O` belongs 20.6 µM [rising, single point].
Take `Cc1nnc(SCc2ccc(F)cc2)s1`: the AC50 under setting [1] was 11.2 µM [rising, single point].
As for `CCCCNC(=O)c1ccccc1NS(=O)(=O)c1ccc2c(c1)OCCO2`, the AC50 under setting [1] is 2.06 µM [rising, partial curve, poor fit].
Regarding `NC(=O)COC(=O)c1ccc(-c2ccc(O)cc2)cc1`, the AC50 under setting [1] is 35.5 µM [rising, single point].
`COc1ccc(N(CC(=O)Nc2ccccc2F)S(=O)(=O)c2ccc(OC)c(OC)c2)cc1`: under setting [1], the AC50 was 6.31 µM [rising, single point].
The same measure, in the same setting: to `CCCCCc1nnc(NC(=O)C2=COCCO2)s1` belongs 29.1 µM [falling, single point]; to `CCN(CC)C(=O)CN(c1cccc(OC)c1)S(=O)(=O)c1ccc(C)cc1`, 0.0116 µM [falling, full curve, poor fit].
On the same count and under the same terms, the result for `CSc1nc(-c2ccc(Cl)cc2)nc(N)c1C#N` reads 0.562 µM [falling, full curve, poor fit]; that for `O=C(Nc1ccccc1Cl)c1ccc2nccnc2c1`, 35.5 µM [falling, partial curve, poor fit].
